# Reference: the supplement of paper PMC12889115
# This is one part of the list. These are raw signals, not scaled to a control.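 Primary screen: polymyxin B was added at a level permeabilizing Salmonella outer membranes while sparing inner membranes. DMSO wells, both with and without polymyxin B, established maximum growth. Plate-to-plate variation meant each plate was ranked on its own, and the lowest-OD600 compounds were selected as hits.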
# Test system: Salmonella enterica serovar Typhimurium SL1344
# Test: bacterial growth OD600 after 18 h with compound and polymyxin B; higher = more bacterial growth (less inhibition)
# Settings: 50 µM, Mueller-Hinton broth
SMILES,bacterial growth OD600 (polymyxin B 1 µg/mL),bacterial growth OD600 (polymyxin B 0.75 µg/mL)
COc1cccc(CN2CCNC(=O)C2CC(=O)NCCc2cccnc2)c1OC (stereo unspecified),0.75,–
COc1ccc(C(CC(=O)NCc2ccncn2)c2ccccc2)cc1 (stereo unspecified),–,0.836
O=C(CCC(F)(F)F)NC1CC(=O)N(Cc2cccc(F)c2)C1 (stereo unspecified),0.903,–
C=CC[C@@H]1CC=C[C@@H](C)N1C(=O)CCc1nnc(CCc2ccccc2OC)o1,–,0.007
CCOC(=O)C1(CCCc2ccccc2)CCCN(C(=O)c2snnc2C)C1 (stereo unspecified),0.966,–
COCCNc1ccc(-c2nc(Cc3ccc(F)cc3)no2)cn1,0.812,–
COc1ccc(OC)c(CN2CCN(Cc3ccc(OC)c(C)c3C)C(CCO)C2)c1 (stereo unspecified),0.938,–
Cc1ccccc1CCC1CCCN(C(=O)CCN2CCCC2=O)C1 (stereo unspecified),0.965,–
COC(=O)c1ccc(-c2noc(CN(C)Cc3cccc(-n4cccn4)c3)n2)cc1,1.1,–
CC(C)c1nc(C(=O)N(Cc2cccnc2)CC2CCN(C3CCCC3)CC2)cs1,0.996,–
CN(C)C1(C(=O)N2CCCC2c2ccc(F)cc2)Cc2ccccc2C1 (stereo unspecified),0.001,–
CCC(C)NC1CCN(c2ccc(NC(=O)c3ccc(C)cc3C)cc2)CC1 (stereo unspecified),–,0.932
CN(C)c1nc2nonc2nc1N1CCCC(c2nc3ccccc3[nH]2)C1 (stereo unspecified),–,0.772
CCn1c(-c2cccnc2)nc2cc(NC(=O)COC)cc(C(=O)N(C)Cc3ccc(F)cc3)c21,–,0.845
COC(=O)c1cccc(C(=O)N2CCC(C(Cc3ccc(F)cc3F)N(C)C(=O)C3CC3)CC2)c1 (stereo unspecified),–,0.006
O=C(Cc1ccccn1)N1CCc2onc(-c3ccc(F)c(F)c3)c2C1,–,0.697
Cc1ccc(C)c(-c2cn3c(C(=O)NCc4ccon4)csc3n2)c1,–,0.424
Cc1ccc(CCC(=O)Nc2ccc3c(c2)CN(Cc2ccoc2)CC3)cc1,–,0.713
O=C(Nc1ccnn1C1CCN(Cc2c(F)ccc(F)c2F)CC1)C1CCCC1,–,0.815
COc1cccc(N2CCN(C(=O)c3cc(CC(C)c4ccccc4)no3)CC2=O)c1 (stereo unspecified),–,0.837
O=C1CCCN1CC(=O)N1CCCC(CCc2ccccc2F)C1 (stereo unspecified),–,0.796

# Record cards, as listed above.
# `COc1cccc(CN2CCNC(=O)C2CC(=O)NCCc2cccnc2)c1OC` (stereo unspecified) is entered as bacterial growth OD600 (polymyxin B 1 µg/mL): 0.75
# `CC(C)c1nc(C(=O)N(Cc2cccnc2)CC2CCN(C3CCCC3)CC2)cs1` is entered as bacterial growth OD600 (polymyxin B 1 µg/mL): 0.996
